Assay results reported in publication PMC7819943, “Rice protein-binding microarrays: a tool to detect cis-acting elements near promoter regions in rice”.
This is one part of the list.

Each sequence was assayed against T1, OsSMF1 (Oryza sativa, UniProt Q6ZLB0 1-436) (assay: protein-binding microarray (RPBM); PBS, 2% BSA, 51.3 ng/ul salmon testes DNA, 50 uM zinc acetate, 200 nM TF, 25 C, 1 h; high values mean tight binding). Conditions: protein: recombinant; tags: N-terminal polyhistidine and DsRed monomer fusion (pET32a); chain copies: 2; label: CyDye5-dUTP incorporated in the synthesized complementary strand; 3' TTTTT single-stranded linker to array surface; dsDNA, one strand shown.
T1 sequence: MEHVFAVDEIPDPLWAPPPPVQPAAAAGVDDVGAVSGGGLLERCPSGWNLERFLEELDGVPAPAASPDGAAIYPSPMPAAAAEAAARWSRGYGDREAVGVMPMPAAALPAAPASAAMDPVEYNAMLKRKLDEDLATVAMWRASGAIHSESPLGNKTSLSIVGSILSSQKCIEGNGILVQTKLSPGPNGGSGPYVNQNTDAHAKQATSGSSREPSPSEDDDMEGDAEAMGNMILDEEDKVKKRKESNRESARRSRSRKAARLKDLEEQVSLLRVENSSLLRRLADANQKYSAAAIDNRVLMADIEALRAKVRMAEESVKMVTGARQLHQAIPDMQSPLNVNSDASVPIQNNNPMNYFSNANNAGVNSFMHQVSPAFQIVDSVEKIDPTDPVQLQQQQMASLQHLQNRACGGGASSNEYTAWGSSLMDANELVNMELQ
Outline: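 Binding signal is defined as the fluorescence intensity of each feature in arbitrary units, read on an Axon 4000B scanner. Transcription factors with N-terminal polyhistidine and DsRed fusions came from E. coli BL21-CodonPlus and were purified on Ni–NTA. They were incubated at 200 nM for 1 h at 25 °C on a custom Agilent array that had been made double-stranded with Cy5-dUTP, with 50 µM zinc acetate present, and the array was washed.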

Row | Sequence | binding signal
1 | TTTATATACGTATTCTTAACGTTATAAACGTACTGACTGACGGAGTCACCTAGTGCAG | 3410 fluorescence intensity (a.u.)
2 | CACCTGCAGCTGCCACGTCAGAGCCACGTCGGATTCCAACCGGAGTCACCTAGTGCAG | 40800 fluorescence intensity (a.u.)
3 | TCTCTTGCTAACTGTGCTTAGTCAATATTGGGTGCTGAGTCGGAGTCACCTAGTGCAG | 3650 fluorescence intensity (a.u.)
4 | ACATATATGCTATTATATGAGAGAGAATATAATGATGCTACGGAGTCACCTAGTGCAG | 34700 fluorescence intensity (a.u.)
5 | TGAAGCAGGCAAAGCAGGCAGGAAGGGATAAGAACACAATCGGAGTCACCTAGTGCAG | 24400 fluorescence intensity (a.u.)
6 | CCTTCATCCCATAATATAAAAGATTTTAGAGGGATATGACCGGAGTCACCTAGTGCAG | 33000 fluorescence intensity (a.u.)
7 | CCTTAGGCGTTCTTGCCGGTGCCGTTCGTTCCTGGGGCCGCGGAGTCACCTAGTGCAG | 23500 fluorescence intensity (a.u.)
8 | ACCAGCAGCCAGTCAGCCTCCTTGACCCACACACACTCTCCGGAGTCACCTAGTGCAG | 5530 fluorescence intensity (a.u.)
9 | AGAGTAGATTGTACATTGTTTTGCTCACCTTAGTTTAGTACGGAGTCACCTAGTGCAG | 3860 fluorescence intensity (a.u.)
10 | GTGTCTGACAAGGCCGGGCCCACTGTCATTCACTCAGTCCCGGAGTCACCTAGTGCAG | 3880 fluorescence intensity (a.u.)
11 | ATGCGTACTCATGCCGTTGTCTTCTCGCAGTTGCGCTGGTCGGAGTCACCTAGTGCAG | 3860 fluorescence intensity (a.u.)
12 | TCTCTTCGGTGGTGGAATTGGTTTCATCTGAGCTGCTGCTCGGAGTCACCTAGTGCAG | 3470 fluorescence intensity (a.u.)
13 | GTATTTATTATCTTCTCTAATGAGGTGTATTGCTGTGGACCGGAGTCACCTAGTGCAG | 3250 fluorescence intensity (a.u.)
14 | ATAACTAAGATGTGCCACATCTCCTTCTAAGTTAAGTTTTCGGAGTCACCTAGTGCAG | 3300 fluorescence intensity (a.u.)
15 | GACAGTAGTGTCCCTGGTTTTGGCTGACGTGGCTCCTACACGGAGTCACCTAGTGCAG | 33200 fluorescence intensity (a.u.)
16 | GCGCTTCCGGCCCAGGAGCCTCAAATCACACCTCAGACTCCGGAGTCACCTAGTGCAG | 36900 fluorescence intensity (a.u.)
17 | GTTTCATCCGATGAGTTGTCTGGACGTTGCATCGGCTTACCGGAGTCACCTAGTGCAG | 3290 fluorescence intensity (a.u.)
18 | CAGGTTCGCCTCGAACGTGCTGTTGCCCACGTACGTGTTGCGGAGTCACCTAGTGCAG | 4400 fluorescence intensity (a.u.)
19 | CGCGTGCACACGCACACGTTGGCCGGTTGATCTCACCAAGCGGAGTCACCTAGTGCAG | 4080 fluorescence intensity (a.u.)
20 | CGCCACCAGGCTCCTCAGGCTCAACCTCGCCTACAACAACCGGAGTCACCTAGTGCAG | 30900 fluorescence intensity (a.u.)
21 | GTCTGGTCTGCGAATCGCCGGTCACCAGTGAATGGGCATGCGGAGTCACCTAGTGCAG | 3160 fluorescence intensity (a.u.)

Individual results from above.
Under binding signal, CCTTAGGCGTTCTTGCCGGTGCCGTTCGTTCCTGGGGCCGCGGAGTCACCTAGTGCAG has the entry 23500 fluorescence intensity (a.u.)
Under binding signal, TGAAGCAGGCAAAGCAGGCAGGAAGGGATAAGAACACAATCGGAGTCACCTAGTGCAG has the entry 24400 fluorescence intensity (a.u.)
Under binding signal, GCGCTTCCGGCCCAGGAGCCTCAAATCACACCTCAGACTCCGGAGTCACCTAGTGCAG has the entry 36900 fluorescence intensity (a.u.)

Later entries

Row | Sequence | binding signal
22 | TAGATCGAGATGGCTGTCATCATCGGAGCCAAACGATCGACGGAGTCACCTAGTGCAG | 3260 fluorescence intensity (a.u.)
23 | GCGGGAGGAGGAGGGGAGGGAATCGCAGCTGCTGCGGCGGCGGAGTCACCTAGTGCAG | 4990 fluorescence intensity (a.u.)
24 | GCCGCCGCGTGGAGGCCGAGACGCCGCCGCCGCCGCCACGCGGAGTCACCTAGTGCAG | 3240 fluorescence intensity (a.u.)
25 | GCGCTAATGGACTGCTCTAGCCCTAGCCCTTGCGTGTGCACGGAGTCACCTAGTGCAG | 3170 fluorescence intensity (a.u.)
26 | CGCATCCCCGACAGGTCGACGCCCTCGTCAGCAACGATGACGGAGTCACCTAGTGCAG | 7100 fluorescence intensity (a.u.)
27 | CGTAAATGCCACCGCACTACCACTTCAATCCCTCCCTCTCCGGAGTCACCTAGTGCAG | 3350 fluorescence intensity (a.u.)
28 | GTGCTTTACGATTCGCGCTGGCTGCGTGGCCCCACCCGTCCGGAGTCACCTAGTGCAG | 3970 fluorescence intensity (a.u.)
29 | CGAGATCAGCCTACCAGCATGACGCGTGTTCGCGAAGGACCGGAGTCACCTAGTGCAG | 5310 fluorescence intensity (a.u.)
30 | TTCAGATGTACAATTTTGCTGGATTACTAGTAGTTTTCTTCGGAGTCACCTAGTGCAG | 17600 fluorescence intensity (a.u.)
31 | GGGGATCGACTACGACGATGCCTTCGCTCCCGTGGCACGGCGGAGTCACCTAGTGCAG | 3180 fluorescence intensity (a.u.)
32 | CCGCCGCCGCCGCCGCCGCCGCCATTGCCGATGCCGCCCTCGGAGTCACCTAGTGCAG | 3800 fluorescence intensity (a.u.)
33 | TGTTGAGTCGATTCAGAGAACCACGTAGTGTTGGTACACTCGGAGTCACCTAGTGCAG | 3180 fluorescence intensity (a.u.)
34 | TAGCAAAGTTTGCCAAAATTGTATTGGTTGATGTGTATTGCGGAGTCACCTAGTGCAG | 3150 fluorescence intensity (a.u.)
35 | GATAGAATCTTTCACCTCACAAGGGGTGGCATAAGCAAGGCGGAGTCACCTAGTGCAG | 7300 fluorescence intensity (a.u.)
36 | GGGGTAGGGTTTGCATGCTTGAGTTCATAGGGTACGTCGCCGGAGTCACCTAGTGCAG | 3620 fluorescence intensity (a.u.)
37 | AGGAGAAAGGCCGGCGAAGTGCCACGTGTCCACGACGGCCCGGAGTCACCTAGTGCAG | 28600 fluorescence intensity (a.u.)
38 | ACACTCAAAAGAACATGTACCTTCTCGTCAACATCATATACGGAGTCACCTAGTGCAG | 3400 fluorescence intensity (a.u.)
39 | TCTCTCCTCTTCCAAAATGTCTCCCGACGCCGACGCGGCGCGGAGTCACCTAGTGCAG | 3550 fluorescence intensity (a.u.)
40 | TATTATCAAGGATCTTATGTTGCAGCGTGACAAAGCAGTACGGAGTCACCTAGTGCAG | 3360 fluorescence intensity (a.u.)
41 | CGCTGCCTCAGTCGTCTCGTCTCGTCACGACAGCACAGTACGGAGTCACCTAGTGCAG | 4940 fluorescence intensity (a.u.)
42 | TGATACATTACTCAAGGAAACAGTCACACAGTCTATCACGCGGAGTCACCTAGTGCAG | 3200 fluorescence intensity (a.u.)
